Assay results: article PMC4751440
These are yes or no findings as the source states them, for the method shown. In cells and extracts the contact can be indirect. Some results given as binding are weak or reduced against the parent protein; the word gives no strength. Where a sequence is shown, tags or fusion partners need not be part of it.

Amino acid sequences for entries named in this document (tags omitted). A change or cut given only in a name is not applied to a line headed by its entry. Chains listed by the source or under a name are the forms on record and can include a tag or linker.
FLAG-tagged JNK1 (pcDNA3 FLAG JNK1a1) (P45983, form named): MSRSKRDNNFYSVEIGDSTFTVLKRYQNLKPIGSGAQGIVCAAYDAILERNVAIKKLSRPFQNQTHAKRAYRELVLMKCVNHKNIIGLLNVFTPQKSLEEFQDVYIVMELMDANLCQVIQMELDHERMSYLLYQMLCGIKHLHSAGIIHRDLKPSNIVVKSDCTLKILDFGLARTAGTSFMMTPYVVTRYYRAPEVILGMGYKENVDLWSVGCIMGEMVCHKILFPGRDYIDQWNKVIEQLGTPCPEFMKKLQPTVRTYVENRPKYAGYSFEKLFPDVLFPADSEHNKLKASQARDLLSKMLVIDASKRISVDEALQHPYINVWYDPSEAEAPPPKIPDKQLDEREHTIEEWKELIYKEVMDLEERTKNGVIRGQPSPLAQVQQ

Legend:
[1] = target: FLAG-tagged JNK1 (pcDNA3 FLAG JNK1a1) (UniProt P45983); assay: co-IP; HEK293 cells co-transfected with p66Shc-HA-His and FLAG-JNK1a1 or FLAG-JNK2a2; NP-40 lysis buffer; immunoprecipitation 3 h with anti-FLAG M2 affinity gel; p66Shc detected with anti-HA; cells untreated or stressed with H2O2 (1 mM, 15 min) or hypoxia 8 h
[2] = target: FLAG-tagged JNK2 (pcDNA3 FLAG JNK2a2) (UniProt P45984); assay: as above

B1: HA-tagged p66Shc (pRec_p66Shc-HA-His) (protein, UniProt P29353-1 1-583)
chain: MDLLPPKPKYNPLRNESLSSLEEGASGSTPPEELPSPSASSLGPILPPLPGDDSPTTLCSFFPRMSNLRLANPAGGRPGSKGEPGRAADDGEGIVGAAMPDSGPLPLLQDMNKLSGGGGRRTRVEGGQLGGEEWTRHGSFVNKPTRGWLHPNDKVMGPGVSYLVRYMGCVEVLQSMRALDFNTRTQVTREAISLVCEAVPGAKGATRRRKPCSRPLSSILGRSNLKFAGMPITLTVSTSSLNLMAADCKQIIANHHMQSISFASGGDPDTAEYVAYVAKDPVNQRACHILECPEGLAQDVISTIGQAFELRFKQYLRNPPKLVTPHDRMAGFDGSAWDEEEEEPPDHQYYNDFPGKEPPLGGVVDMRLREGAAPGAARPTAPNAQTPSHLGATLPVGQPVGGDPEVRKQMPPPPPCPGRELFDDPSYVNVQNLDKARQAVGGAGPPNPAINGSAPRDLFDMKPFEDALRVPPPPQSVSMAEQLRGEPWFHGKLSRREAEALLQLNGDFLVRESTTTPGQYVLTGLQSGQPKHLLLVDPEGVVRTKDHRFESVSHLISYHMDNHLPIISAGSELCLQQPVERKL
binding [1]: binds
binding [2]: binds
